From PMC11852966

Biological target: T1, KRT9-Myc (human (cDNA from HEK293T mRNA)) (UniProt P35527)
T1 sequence: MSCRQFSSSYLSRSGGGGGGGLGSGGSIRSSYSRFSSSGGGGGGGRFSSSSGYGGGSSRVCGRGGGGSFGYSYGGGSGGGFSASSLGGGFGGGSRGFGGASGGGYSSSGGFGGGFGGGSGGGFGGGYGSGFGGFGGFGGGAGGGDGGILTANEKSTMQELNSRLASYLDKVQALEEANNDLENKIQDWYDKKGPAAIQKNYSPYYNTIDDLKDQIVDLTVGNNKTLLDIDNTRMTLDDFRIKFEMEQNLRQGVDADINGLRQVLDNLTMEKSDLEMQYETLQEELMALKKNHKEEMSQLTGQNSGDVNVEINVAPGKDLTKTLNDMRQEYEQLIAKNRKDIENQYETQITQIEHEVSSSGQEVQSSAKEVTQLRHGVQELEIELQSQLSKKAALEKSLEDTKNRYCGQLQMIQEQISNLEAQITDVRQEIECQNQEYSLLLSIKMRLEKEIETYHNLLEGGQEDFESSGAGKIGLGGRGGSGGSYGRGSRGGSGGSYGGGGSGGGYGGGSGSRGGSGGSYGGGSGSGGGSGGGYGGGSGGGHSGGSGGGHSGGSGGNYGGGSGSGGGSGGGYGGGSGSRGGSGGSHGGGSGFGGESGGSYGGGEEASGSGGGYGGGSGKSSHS
Assay: co-IP; […] (20 mM Tris-HCl pH 7.5, 100 mM NaCl, 0.1 mM EDTA, 0.05% Tween-20); […]

binding: no binding
Substance: GBP5-Flag △C (domain or fragment)

No constants are given. Whether binding was seen depends on the method and setting. Binding seen in cells or lysates may run through a third protein. Where a sequence is shown, tags or fusion partners need not be part of it.
